Laboratory results from patent US20140234365A1, “2-HYDROXYHIPPURIC ACID ANALOGS, AND METHODS FOR THEIR SYNTHESIS AND USE” (ALERE SAN DIEGO, INC., priority 2011, published 2014).
Some results were stated once for a whole list of compounds, not compound by compound.

Tested on: anti-2-Hydroxyhippuric acid antibody
Experiment: Competitive immunoassay for detecting 2-hydroxyhippuric acid (microfluidic device, fluorescent latex particle conjugate)
Assay type: binding
Conditions: closely related compounds, concentrations at least as high as stated
Source text: A competitive assay for detecting 2-hydroxyhippuric acid in […] was developed using microfluidic devices manufactured at Alere San Diego, Inc. essentially as described in WO98/43739, WO98/08606, WO98/21563, and WO93/24231. An anti-2-Hydroxyhippuric acid antibody was developed by phage display using a hapten-KLH conjugate as immunogen. This antibody was conjugated to a 0.13 μm maleimide-functionalized latex particle via a free cysteine residue on the antibody. The detection reagent consisted of a 0.50 μm fluorescence energy transfer latex particle (essentially as described in U.S. Pat. Nos. 5,763,189, 6,238,931, and 6,251,687; and International Publication WO95/08772) made according to Example 6. […] (comprising 0.22% solids) of the antibody-particle conjugate was spotted onto the diagnostic lane of the microfluidic device, and 170 nL (comprising 0.4% solids) of the 2-Hydroxyhippuric acid-particle conjugate was applied to the device reaction chamber. Analytes were dissolved in deionized water, then diluted into pools of human plasma to achieve the desired final concentration. 210 μL of sample was applied to the device sample addition zone and allowed to run >15 minutes prior to reading the fluorescence in the TRIAGE (Biosite Incorporated) meter. A fluorescent signal was obtained by integrating the fluorescence as a function of distance from the device origin.

Compound | concentration at which the assay does not appreciably detect the compound (cross-reactivity)
O=C(O)c1cc(O)ccc1O [gentisic acid] | ≥ 1 mg/mL
O=C(O)c1ccccc1O [salicylic acid] | ≥ 1 mg/mL
